Assay in all cases: EMSA
Background: Mobility shift assays separate free from complexed probe on a gel.

By UniProt entry, the sequences of proteins in these tests, tags left out. Where a name states a change or a piece, a line headed by the entry shows the natural chain unless it says otherwise. Residues count along the entry.
UniProt Q9H3D4, 40-680: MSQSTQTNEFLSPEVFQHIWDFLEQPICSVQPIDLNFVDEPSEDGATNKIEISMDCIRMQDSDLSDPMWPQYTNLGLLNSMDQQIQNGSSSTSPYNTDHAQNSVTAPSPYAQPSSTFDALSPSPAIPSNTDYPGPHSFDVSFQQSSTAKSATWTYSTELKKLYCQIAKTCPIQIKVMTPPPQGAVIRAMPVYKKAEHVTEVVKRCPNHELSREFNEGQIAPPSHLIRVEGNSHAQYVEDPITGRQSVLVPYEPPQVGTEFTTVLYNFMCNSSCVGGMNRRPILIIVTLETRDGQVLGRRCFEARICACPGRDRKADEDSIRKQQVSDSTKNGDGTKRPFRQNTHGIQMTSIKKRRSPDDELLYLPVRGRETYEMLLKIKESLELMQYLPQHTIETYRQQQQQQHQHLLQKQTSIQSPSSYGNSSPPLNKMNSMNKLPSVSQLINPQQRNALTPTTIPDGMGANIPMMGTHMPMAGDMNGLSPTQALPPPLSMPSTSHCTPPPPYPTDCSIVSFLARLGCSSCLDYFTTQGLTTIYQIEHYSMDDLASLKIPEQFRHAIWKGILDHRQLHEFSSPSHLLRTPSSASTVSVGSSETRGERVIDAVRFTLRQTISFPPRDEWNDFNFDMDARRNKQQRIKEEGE

The target in one series is ΔNp63γ (UniProt Q9H3D4). Particulars: 100 pM probe, room temperature, protein in a lysate after overexpression, label: 32P.
Another series deals with GFP (UniProt P42212). Conditions: negative control lysate, protein in a lysate after overexpression, label: 32P.
In a further series the target is TAp63α (UniProt Q9H3D4). Particulars: 100 pM probe, room temperature, protein in a lysate after overexpression, label: 32P.

Where cells or extracts were used, other partners may take part. No signal at the amounts used counts as a negative.

Take “CCTGCCTGGACTTGCCTGG (double strand) [PG]”: the binding result is on record as “binds” with ΔNp63γ, “no binding” with GFP and “binds” in the series with TAp63α.
As for “CCTTAATGGACTTTAATGG (double strand) [MG]”, the binding result is on record as “no binding” in the series with ΔNp63γ (no shift, variant of PG); “no binding” with GFP (variant of PG); “no binding” in the series with TAp63α (no shift, variant of PG).

These data come from patent US20040132120.
